Experimental data reported in the supplement of paper PMC7840683.

System: HepaRG
Assay: LDH release cytotoxicity, % of total lysis control; higher = more cytotoxic
Settings: 48 h
Outline: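 Eight-point half-log series of test chemicals, the highest at 100 µM, were given in duplicate for 48 h to single-lot HepaRG cells on collagen I-coated 96-well plates in serum-free induction medium with 0.5% DMSO. A Tecan Safire read resorufin fluorescence from CytoTox-ONE as a measure of LDH in 50 µL spent medium, with 0.1% Triton X in total lysis wells. Percent cytotoxicity was normalized to on-plate vehicle and total lysis controls and averaged over the duplicates.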

O=C(c1ccccc1)c1ccccc1 [Benzophenone]
Settings	LDH release cytotoxicity [%]
0.03162 µM	-0.384
0.1 µM	-1.41
0.3162278 µM	-1.26
1 µM	-1.32
3.16228 µM	-0.85
10 µM	-0.923
31.6228 µM	-1.28
100 µM	-0.16
